In PubChem BioAssay AID504467 (National Center for Advancing Translational Sciences (NCATS), 2011):
Hit rate of the full screen: of about 330,000 compounds, about 7,700 (2.3%) were called active. This list was built around the results that the source calls inconclusive (neither active nor inactive); the mix of calls is not that of the screen. Calls follow the shape of the dose curve; as a rule, active = well fitted inhibition curve with a large enough effect; inconclusive = small, poorly fitted or top-dose-only effect, or effect the other way; inactive = flat fitted curve, though single readings scatter. A potency beside an inconclusive call is a rough fit, not a confirmed value.

test: qHTS screen for small molecules that inhibit ELG1-dependent DNA repair in human embryonic kidney (HEK293T) cells expressing luciferase-tagged ELG1; conditions: HEK293T ELG1-luciferase reporter, luminescence, 16 h, DNA damage induced by 5-fluorouridine; activity change, negative = inhibition: at 46.1 µM (top of the series); also: nearly all actives have a fitted effect of over 55% in size
Method in brief: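 Step one: seed 2,000 cells per well. Step two: pin-transfer compound or DMSO alongside 5-fluorouridine. Step three: incubate 16 hr, 37 °C, 5% CO2. Step four: add ONE-Glo, wait 30 min, read luminescence.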
% is scaled to controls: 0 for no effect and ±100 for the full control effect; potency is read from the fitted curve at half-maximal effect.

Row | SMILES | Potency | activity change, negative = inhibition
1 | Cc1ccc(NC(=O)Cc2c[nH]c3ccccc23)cc1S(=O)(=O)N1CCCCCC1 | active: 20.6 µM | 
2 | COc1ccc2[nH]c(C)c(CCNC(=S)Nc3ccccc3OC)c2c1 | inconclusive: 29.1 µM [inhibitor, single point] | 
3 | CN(C(=O)c1cc2c(s1)-c1ccccc1S(=O)(=O)C2)c1ccccc1F | inconclusive: 29.1 µM [inhibitor, single point] | 
4 | Cc1ccccc1OCC(=O)NNC(=O)Nc1ccccc1 |  | inactive: -11.9%
5 | COc1ccc2[nH]c3c(c2c1)CCN1C(=O)C(CC(=O)NC(C)(C)C)C[C@H](C(=O)N2CCCCC2)[C@@]31C (stereo partly specified) |  | inactive: 7.34%
6 | Cc1nc(CS(=O)c2ccc(Cl)cc2)cc(NCc2ccc(Cl)cc2Cl)n1 (stereo unspecified) |  | inactive: -21.7%
7 | CNc1ccc(OC(F)F)cc1C(=O)c1ccccc1 | inconclusive: 29.1 µM [activator, partial curve, poor fit] | 
8 | Cc1cccc2sc(NC(=O)CCNC(=O)c3ccco3)nc12 | inconclusive: 23.1 µM [inhibitor, partial curve, poor fit] | 
9 | COC(=O)c1cn(CCOc2ccccc2F)c2ccccc12 | inconclusive: 18.4 µM [activator, partial curve] | 
10 | Cc1cc(C(=O)CSc2nnc(-c3cccc(F)c3)n2N)c(C)n1Cc1ccc2c(c1)OCO2 | inconclusive: 8.2 µM [inhibitor, partial curve] | 
11 | CC1(OC(=O)C2CCCC2)C(=O)C=C2C=C(c3ccsc3)N(CC3CC3)C=C2C1=O (stereo unspecified) |  | inactive: -12.6%
12 | O=C(/C=C/c1ccc(Cl)cc1Cl)N1CCN(c2ccccc2[N+](=O)[O-])CC1 | inconclusive: 14.6 µM [inhibitor, single point] | 
13 | COc1ccc(-n2nc(C(=O)c3cccs3)cc(-c3nc4ccccc4[nH]3)c2=N)cc1 | inconclusive: 14.6 µM [activator, partial curve] | 
14 | O=C(C[C@@H]1C/C=C\CC[C@H](Cc2ccc(F)cc2)C(=O)OC[C@@H]2CCCN2C1=O)N[C@H](CO)Cc1ccccc1 | active: 20.6 µM | 
15 | Cc1cc(O)ccc1Nc1nc(-c2cccs2)cs1 | inconclusive: 5.17 µM [activator, full curve] | 
16 | CCn1c(SCC(=O)N2CCOCC2)nc2oc3c(Cl)cc(Cl)cc3c(=O)c2c1=O | inconclusive: 11.6 µM [inhibitor, partial curve] | 
17 | COc1ccc(NS(=O)(=O)c2ccc(C)c(NC(=O)CNC(=O)c3ccco3)c2)cc1 |  | inactive: 5.29%
18 | COc1ccccc1C(CNC(=O)CSc1ccc2ccccc2c1)N(C)C (stereo unspecified) |  | inactive: -0.53%
19 | CC1(C)C[C@H]2C3=CCC4[C@@]5(C)CC[C@H](O)[C@](C)(CO)C5CC[C@@]4(C)[C@]3(C)C[C@@H](O)[C@@]2(CO)[C@@H](O)[C@@H]1O (stereo partly specified) |  | inactive: -2.62%
20 | O=C(NCc1ccco1)c1cc(-c2ccc(F)cc2)on1 | inconclusive: 13 µM [activator, partial curve] | 
21 | O=[N+]([O-])c1ccc(C[n+]2cccc3ccc4cccnc4c32)cc1 | active: 7.3 µM | 
22 | Cc1ccc2[nH]c(C(F)(F)F)cc(=O)c2c1 | inconclusive: 13 µM [inhibitor, partial curve, poor fit] | 
23 | COc1cccc(COCCN2CCN(S(=O)(=O)c3ccc(C)cc3)CCC2=O)c1 |  | inactive: -0.256%
24 | CN1C(=O)/C(=N/OC(=O)c2ccccc2Br)c2ccccc21 | inconclusive: 29.1 µM [activator, single point] | 

Whole records, quoted from the list.
CN1C(=O)/C(=N/OC(=O)c2ccccc2Br)c2ccccc21 in the list: Potency: inconclusive: 29.1 µM [activator, single point]
O=C(C[C@@H]1C/C=C\CC[C@H](Cc2ccc(F)cc2)C(=O)OC[C@@H]2CCCN2C1=O)N[C@H](CO)Cc1ccccc1 in the list: Potency: active: 20.6 µM
COC(=O)c1cn(CCOc2ccccc2F)c2ccccc12 in the list: Potency: inconclusive: 18.4 µM [activator, partial curve]
Cc1ccc2[nH]c(C(F)(F)F)cc(=O)c2c1 in the list: Potency: inconclusive: 13 µM [inhibitor, partial curve, poor fit]

Going on with the list.

Row | SMILES | Potency | activity change, negative = inhibition
25 | O=C(COc1ccc2ccccc2c1)NNC(=O)c1cccs1 |  | inactive: 7.15%
26 | Cc1cc(C)nc(NC2=NCC(=O)N2c2cccc(Cl)c2)n1 |  | inactive: 2.65%
27 | Cc1ccc(-c2c(=O)n(OCc3ccccn3)c3ccccc3[n+]2[O-])cc1 | inconclusive: 18.4 µM [activator, partial curve, poor fit] | 
28 | CC(=O)Nc1nc2ccc(NC(=O)c3ccco3)cc2s1 | inconclusive: 16.4 µM [activator, partial curve] | 
29 | CCOC(=O)c1c(C)c(C(=O)NCc2cccs2)c(C)n1C | inconclusive: 25.9 µM [inhibitor, partial curve, poor fit] | 
30 | CC(C)Sc1nc2c([nH]1)c(=N)ncn2Cc1ccccc1 |  | inactive: 5.79%
31 | O=Nc1c(O)n(Cc2ccccc2)c2ccccc12 |  | inactive: -6.5%
32 | O=C(NCC1CCCCC1)C1(CC2CC(c3ccc(Cl)cc3)=NO2)CCNCC1 (stereo unspecified) |  | inactive: 29.9%
33 | Cn1ncc(N=Cc2ccccc2)c1C(N)=O |  | inactive: 12.9%
34 | O=C(Nc1ccc(F)cc1F)C1CCCN1S(=O)(=O)c1cccc2nsnc12 (stereo unspecified) |  | inactive: -5.65%
35 | COC(=O)c1c(-c2c(Cl)cccc2Cl)noc1C(=O)NNC(=O)N(C)C | inconclusive: 16.4 µM [inhibitor, single point] | 
36 | COc1ccc(N2CCN(C(CNC(=O)COc3ccccc3)c3ccco3)CC2)cc1 (stereo unspecified) | inconclusive: 1.83 µM [inhibitor, partial curve, poor fit] | 
37 | COc1ccc(S(=O)(=O)N2c3cc(C)ccc3OCC2C(C)(C)C)cc1 (stereo unspecified) | inconclusive: 1.78 µM [inhibitor, partial curve, poor fit] | 
38 | C=CCOc1c(Br)cc(/C=N/NC(=O)Cc2ccc(C(F)(F)F)cc2[N+](=O)[O-])cc1OC | inconclusive: 29.1 µM [activator, single point] | 
39 | COc1cccc(NC(=O)Nc2nc(SC)ns2)c1 | inconclusive: 28.2 µM [inhibitor, single point] | 
40 | COc1ccc2c3n([n+]([O-])c2c1)CCN=C3c1ccc(Cl)cc1 | inconclusive: 25.1 µM [activator, single point] | 
41 | CCOC(=O)Nc1ccc(N2CCOCC2)c(S(=O)(=O)N2CCOCC2)c1 | inconclusive: 29.1 µM [activator, partial curve, poor fit] | 
42 | COc1ccc(C(=O)NCCS(=O)(=O)N2CCN(C(=O)c3ccco3)CC2)cc1 |  | inactive: 0.959%
43 | Cc1cc(C)n(-c2nc3ccccc3c(=O)n2OCC(=O)OCc2ccccc2)n1 | inconclusive: 25.9 µM [activator, single point] | 
44 | Cc1ccn(S(=O)(=O)c2ccc3oc(=O)ccc3c2)n1 |  | inactive: 6.09%
45 | O=C(NCc1ccccc1F)c1ccc(S(=O)(=O)N2CCCCCC2)cc1 | inconclusive: 18.3 µM [inhibitor, single point] | 
46 | CCc1nnc(NC(=O)c2ccc(S(=O)(=O)N(CCOC)CCOC)cc2)s1 | inconclusive: 20.6 µM [activator, single point] | 
47 | O=C(CC1(O)C(=O)Nc2cc(Cl)cc(Cl)c21)c1ccncc1 (stereo unspecified) |  | inactive: -0.513%
48 | Cc1ccc(N=C2NC(=O)S/C2=C\c2ccco2)cc1 | inconclusive: 20.6 µM [activator, partial curve] | 

No new results follow: entries from further up.
Row | SMILES | Potency | activity change, negative = inhibition
42 | COc1ccc(C(=O)NCCS(=O)(=O)N2CCN(C(=O)c3ccco3)CC2)cc1 |  | inactive: 0.959%
43 | Cc1cc(C)n(-c2nc3ccccc3c(=O)n2OCC(=O)OCc2ccccc2)n1 | inconclusive: 25.9 µM [activator, single point] | 

(list continues)

Row | SMILES | Potency | activity change, negative = inhibition
49 | CCOc1ccccc1/C=N/n1nnnc1N |  | inactive: 4.04%
50 | CCCCCCNC(=O)Nc1ccccc1 | inconclusive: 1.26 µM [activator, partial curve, poor fit] | 
51 | CCC(C)[C@@H](C(=O)NCC1CCC(C(=O)O)CC1)n1nnc2ccccc2c1=O (stereo partly specified) |  | inactive: 2.43%
52 | CNc1cc(C)nc(-n2nc(C)cc2C)n1 |  | inactive: -27.9%
53 | Cc1ccc(C(C)(C)C)cc1S(=O)(=O)N1CC(=O)Nc2ccccc21 |  | inactive: -1.68%
54 | Cc1nc2ccc(Cl)cc2nc(C)/c1=N\O | inconclusive: 14.6 µM [activator, partial curve] | 
55 | CC(=O)c1sc(NC(=O)C2=NN(c3ccccc3)C(=O)CC2)nc1C | inconclusive: 23.1 µM [inhibitor, single point] | 
56 | O=C(NCC(=O)N1CCN(c2ccccc2O)CC1)c1ccco1 | inconclusive: 18.3 µM [activator, partial curve, poor fit] | 
57 | Cc1cc(C)cc(N(CCC#N)C(=O)CSc2ncnc3sccc23)c1 | inconclusive: 12.6 µM [inhibitor, partial curve, poor fit] | 
58 | COC(=O)c1c(-c2ccccc2Cl)noc1/C=C/N(C)C | inconclusive: 29.1 µM [inhibitor, single point] | 
59 | CNC(=O)c1csc(-c2ccc(C)cc2)n1 | inconclusive: 14.6 µM [activator, partial curve] | 
60 | O=C(c1cnn2c(C(F)(F)F)cc(-c3ccco3)nc12)N1CCc2ccccc2C1 | active: 23.1 µM | 
61 | Cc1noc(C)c1COC(=O)CCc1nc2ccccc2s1 | inconclusive: 12.6 µM [activator, single point] | 
62 | COc1ccc(NC(C)=O)cc1S(=O)(=O)Nc1ccccc1C(=O)NCCc1ccccc1 | inconclusive: 20.6 µM [activator, partial curve] | 
63 | O=C(N/N=C/C(Br)=C/c1ccccc1)c1cccs1 | inconclusive: 18.3 µM [activator, partial curve] | 
64 | N#Cc1ccsc1NC(=O)CN1CCN(Cc2ccccc2)CC1 | inconclusive: 23.1 µM [inhibitor, single point] | 
65 | Clc1cccc(-c2ccc(-c3nc4ccccn4c3NCc3ccccc3)cc2)c1 | inconclusive: 32.6 µM [inhibitor, single point] | 
66 | NC(=O)C[N+]1(CC#CC(O)(c2ccccc2)c2ccccc2)CCCC1 |  | inactive: 15.9%
67 | Cc1cc(C)n(CC(=O)N2CCCC(N3CCN(Cc4ccc5c(c4)OCO5)CC3)C2)n1 (stereo unspecified) | inconclusive: 7.3 µM [activator, partial curve, poor fit] | 
68 | CCOC(=O)c1ccc(NC(=O)c2cnccn2)cc1 | inconclusive: 16.4 µM [activator, partial curve] | 
69 | C[N+](C)(C)CC(=O)N/N=C/c1c2ccccc2cc2ccccc12 |  | inactive: 8.83%
70 | Cc1cc(C)n2nc(SCc3cccc(F)c3)nc2n1 | inconclusive: 32.6 µM [activator, single point] | 
71 | Cc1cc(-c2ccccc2)nc(N/N=C/c2ccc(O)cc2O)n1 | inconclusive: 18.3 µM [inhibitor, partial curve, poor fit] | 
